Drawing on article doi:10.1101/2025.09.30.679250, this text covers binding for seven molecules.

These are yes or no findings as the source states them, for the method shown. Binding seen in cells or lysates may run through a third protein. These calls come from enrichment with a bait or labelling near it, and not all partners need be listed.

The experiment has as its target Recombinant L-CK1.2-V5-His6 fused to thioredoxin (pBAD-thio-topo-L-CK1.2-V5-His6). Kind of experiment: affinity purification with mass spectrometry.

B1: Ndufa10 (protein, UniProt Q99LC3 36-355)
chain: LRYGLLAAILGDKTTKKLHEYSRVITVDGNICSGKNKLAKEIAQQLGMKHYPEAGIQYSSTTTGDGRPLDIEFSGSCSLEKFYDDPKSNDGNSYRLQSWLYASRLLQYADALEHLLSTGQGVVLERSIYSDFVFLEAMYNQGYIRKQCVDHYNEIKRLTLPEYLPPHAVIYIDVPVPEVQSRIQKKGDPHEMKVTSAYLQDIENAYKKTFLPKMSEMCEVLVYDSWEAEDPTKVVEDIEYLKYNKGPWLKQDDWTFHYLRMLVQDKTEVLNYTTIPVYLPEITIGAHQGSRIYNSFRELPGRKYAPGYNAEVGDKWIWLK
Consider B1, for which the binding entry was “binds”.

B2: mitochondrial ATP synthase subunit Atp5po (protein, UniProt Q9DB20 24-213)
chain: FAKLVRPPVQVYGIEGRYATALYSAASKEKKLDQVEKELLRVGQLLKDPKVSLAVLNPYIKRTVKVKSLNDITKREKFSPLTANLMNLLAENGRLGNTQGIISAFSTIMSVHRGEVPCTVTTASPLDDAVLSELKTVLKSFLSPNQILKLEIKTDPSIMGGMIVRIGEKYVDMSAKSKIQKLSKAMREML
Take B2: the binding result is listed as “binds”.

B3: Ndufa1 (protein, UniProt O35683 1-70)
chain: MWFEILPGLAIMGVCLVIPGVSTAYIHKFTNGGKEKRVARVQYQWYLMERDRRISGVNRYYVSKGLENID
Consider B3, for which the binding entry is reported as “binds”.

B4: Cytochrome b-c1 complex subunit 8 (protein, UniProt Q9CQ69 1-82)
chain: MGREFGNLARIRHVISYSLSPFEQRAFPSYFSKGIPNVLRRTRERILRVAPPFVVVYLIYTWGNQEFEQSKRKNPAMYENDK
Take B4: the binding entry was “binds”.

B5: Rcn2 (protein, UniProt Q8BP92 26-320)
chain: SKAEELHYPQGEHRADYDREALLGVQEDVDEYVKLGHEEQQRRLQSIIKKIDSDSDGFLTENELSQWIQMSFKHYAMQEAKQQFVEYDKNSDGAVTWDEYNIQMYDRVIDFDENTALDDTEEGSFRQLHLKDKKRFEKANQDSGPGLSLEEFIAFEHPEEVDYMTEFVIQEALEEHDKNGDGFVSLEEFLGDYRRDPTANEDPEWILVEKDRFVNDYDKDNDGRLDPQELLSWVVPNNQGIAQEEALHLIDEMDLNSDKKLSEEEILENQDLFLTSEATDYGRQLHDDYFYHDEL
Consider B5, for which the binding entry is on record as “binds”.

B6: mitochondrial ATP synthase subunit Atp5f1c (protein, UniProt Q91VR2 26-298)
chain: ATLKDITRRLKSIKNIQKITKSMKMVAAAKYARAERELKPARVYGTGSLALYEKADIKAPEDKKKHLIIGVSSDRGLCGAIHSSVAKQMKNEVAALTAAGKEVMIVGVGEKIKGILYRTHSDQFLVSFKDVGRKPPTFGDASVIALELLNSGYEFDEGSIIFNQFKSVISYKTEEKPIFSLNTIATAETMSIYDDIDADVLQNYQEYNLANLIYYSLKESTTSEQSARMTAMDNASKNASDMIDKLTLTFNRTRQAVITKELIEIISGAAALD
For B6, the binding entry is “binds”.

B7: Myo1f (protein, UniProt P70248 1-1099)
chain: MGSKERFHWQSHNVKQSGVDDMVLLSQITEDAIVRNLHKRFMDDYIFTYIGSVLISVNPFKQMPYFTDREIDLYQGAVQYEEPPHIYALTDNMYRNMLIDCENQCVIISGESGAGKTVAAKYIMGYISKVSGGGDKVQHVKDIILQSNPLLEAFGNAKTVRNNNSSRFGKYFEIQFSRGGEPDGGKISNFLLEKSRVVMQNENERNFHIYYQLLEGASQEQQQNLGIMSQDYYYYLNQSDTYKVEGTDDRSDFSETLSAMQVMGFRQACQQLVLQLVAGILHLGNISFCEEGNYARVESVDSLAFPAYLLGIDSGRLQEKLTSRKMDSKWGGRSESIDVTLNVEQAAYTRDALAKGLYARLFDFLVEAINRAMQKPQEEYSIGVLDIYGFEIFQKNGFEQFCINFVNEKLQQIFIELTLKAEQEEYVQEGIRWTPIEYFNNKIVCDLIENKLSPPGIMSVLDDVCATMHATGGGADQTLLQKLQAAVGTHEHFNSWSAGFVIHHYAGKVSYDVSGFCERNRDVLFSDLIELMQSSDQDFLRMLFPEKLNIDKKGRPSTAGSKIKKQANDLVSTLKKCTPHYIRCIKPNETKRPRDWEESRVKHQVEYLGLRENIRVRRAGFAYRRQFSKFLQRYAILTPETWPRWRGDERQGVQHLLRAVNMEPDQYQMGSTKVFVKNPESLFLLEEMRERKFDGFARTIQKAWRRHVAVRKYEEMREEASNILLNKKERRRNSINRNFVGNYLGLEERPELRQFLAKRERVDFADSVTKYDRRFKPIKRDLILTPKCVYVIGTEKVKRGPEKGLVREVLKKKLDIQALRGVSLSTRQDDFFILQEEAADTFLESIFKTEFVSLLCKRFEEAARRPLPLTFQDILQFRVKKKGWGGGGTRNVTFSAGQVNLAVLKAGGKTLTISLGDGLPKNSKPTRKGLAQGKPRRSAQAPTRAVPWASQGLNRNGATLFPRGEGPYTLEIYIWPQEFPEASTAIHLQPQDASRRPRARPPSEHSTEFLNVPDQGVAGMQRKRSIGQRPVPASRPKPQPRTHGPRCRALYQYIGQDVDELSFNVNEVIEILIEDSSGWWKGRLHGQEGLFPGNYVEKI
B7: the binding result was “binds”.
